The target in experiment [1] is Human TROP2 Protein, His Tag (Acro Biosystems) (human) (UniProt P09758). Briefly: Octet BLI: IgG supernatant on anti-human Fc sensor, 50 nM TROP2-His at pH 7.4, dissociation at pH 7.4 or 5.4; Octet Binding Result 1=pH dependent. Background: BLI is a label-free optical method that tracks binding on a fibre tip over time.
Experiment [2] has the same target. Nature of the experiment: BLI (Octet).
Experiment [3] shares this target. Briefly: BLI (Octet) [2/2].

Protein sequences, listed by entry. Tags and fused reporters are not part of them. Residues count along the entry.
UniProt P09758, residues 27-274: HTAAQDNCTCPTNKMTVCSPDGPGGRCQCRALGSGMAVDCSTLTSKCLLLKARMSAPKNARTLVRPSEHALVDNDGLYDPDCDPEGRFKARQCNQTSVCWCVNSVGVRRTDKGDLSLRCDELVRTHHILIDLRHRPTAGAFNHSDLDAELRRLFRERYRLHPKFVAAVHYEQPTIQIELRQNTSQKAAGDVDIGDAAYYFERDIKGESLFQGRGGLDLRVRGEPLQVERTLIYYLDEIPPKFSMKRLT

8 molecules from patent publication US20260274985A1 (MYTHIC THERAPEUTICS, published 2026) can be followed below.

Positions count from the first letter of the chain named. Results are given in words; binding and its absence hold for the method and conditions named. Some binding calls cover weakened binding; strength is not graded here.

B1: MYT13278 (antibody, V domains shown)
VH: QVQLQESGPGLVKPSETLSLTCTVSGGSISSYGVHWIRQPPGKGLEWIGVIWTSGVTDYNSALMGRVTISVDTSKNQFSLKLSSVTAADTAVYYCARDGDYHRYTMDYWGQGTLVTVSS
VL: DIVMTQSPDSLAVSLGERATINCRASKSVSTSGYSYMHWYQQKPGQPPKLLIYLASNLHSGVPDRFSGSGSGTDFTLTISSLQAEDVAVYYCQHSRELPYTFGQGTKLEIK
On to B1, for which the binding entry in experiment [1] and in experiment [2] was “binds” throughout.

B2: MYT13294 (antibody, V domains shown)
VH: B1 VH with H102D, R103H
VL: B1 VL with H59E, H94A
Take B2: the binding entry in experiment [1] and in experiment [2] was “binds” in each case.

B3: MYT13309 (antibody, V domains shown)
VH: B1 VH with H102D, R103H
VL: B1 VL with H94A
Turning to B3, the binding entry in experiment [1] and in experiment [2] was “binds” in each case.

B4: MYT13446 (antibody, V domains shown)
VH: B1 VH with H102D, R103H
VL: B1 VL with T101H
Take B4: the binding entry in experiment [1] and in experiment [2] was “binds” throughout.

B5: MYT13441 (antibody, V domains shown)
VH: B1 VH with H102D, R103H
VL: B1 VL with H94A
In the case of B5, the binding entry in experiment [1] and in experiment [3] was “binds” each time.

B6: MYT13284 (antibody, V domains shown)
VH: B1 VH with H102D, R103H
VL: B1 VL with H59E, S60H
As to B6, the binding entry in experiment [1] and in experiment [2] was “binds” in each case.

B7: MYT13303 (antibody, V domains shown)
VH: B1 VH
VL: B1 VL with H59E, T101H
For the molecule B7, the binding result in experiment [1] and in experiment [2] was “binds” throughout.

B8: MYT13293 (antibody, V domains shown)
VH: B1 VH
VL: B1 VL with H59E, H94A
Take B8: the binding entry in experiment [1] and in experiment [2] was “binds” in each case.
